Drawing on publication PMC10182956 (Archives of Toxicology, 2023), this text covers EC50 for 1 compound.

The experiment relates to HepaRG cells. Nature of the experiment: Cell viability assessment (WST-1 assay). Type of experiment: cell-based. The note with it: Homo sapiens, 24 h exposure, reference chemicals, 95% CI in brackets, read-out: EC50 µM (95% CI) from cell viability (WST-1). An excerpt: Undifferentiated HepaRG cells were purchased from Biopredic international (Saint Grégoire, France). HepaRG cells have unlimited growth capacity and phenotypic stability, stable enzymatic activities over 4 weeks of cultivation, and similar metabolic function to primary human hepatocytes, and also avoid limitations of primary cells such as donor variability and phenotypic instability (Aninat et al. [2006]; Guillouzo et al. [2007]; Lambert et al. [2009]; Lübberstedt et al. [2011]; Andersson et al. [2012]). The line contains two cell types, hepatocyte-like and cholangiocyte-like cells (Parent et al. [2004]), which allows for elucidation of cell-specific toxicity (Jossé et al. [2008]). […]
Cell viability was analyzed using the WST-1 assay which is based on the measurement of mitochondrial dehydrogenase activity (cat. nr: ab155902, Abcam, Cambridge, UK). […] After 1 h, absorbance was measured (450 nm, reference wavelength 620 nm) using a plate reader (Infinite M200 Pro, Tecan group, Männerdorf, Switzerland). Absorbance was then subtracted from the reference wavelength, corrected for background by subtracting values measured without cells, and then normalized to the solvent control, which was set to 100%. […]
In general terms: Formazan colour is commonly taken as a measure of viable cells.

What is called EC50 is the concentration at which the effect is half-maximal. With `CCCCc1oc2ccccc2c1C(=O)c1cc(I)c(OCCN(CC)CC)c(I)c1` [amiodarone], the EC50 stood at 45.1 µM.
